From PMC4673166

Protein sequences, listed by entry. Tags and fused reporters are not part of them. Lines headed by an entry give the natural chain unless they say otherwise; changes in a name come on top.
UniProt P10417: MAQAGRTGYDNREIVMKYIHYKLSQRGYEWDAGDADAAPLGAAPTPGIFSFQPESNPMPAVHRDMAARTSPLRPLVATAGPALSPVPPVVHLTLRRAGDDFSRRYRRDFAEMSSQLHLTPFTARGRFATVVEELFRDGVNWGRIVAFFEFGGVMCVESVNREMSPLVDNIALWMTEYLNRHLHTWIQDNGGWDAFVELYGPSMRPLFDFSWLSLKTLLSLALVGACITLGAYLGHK
UniProt Q9JLV5: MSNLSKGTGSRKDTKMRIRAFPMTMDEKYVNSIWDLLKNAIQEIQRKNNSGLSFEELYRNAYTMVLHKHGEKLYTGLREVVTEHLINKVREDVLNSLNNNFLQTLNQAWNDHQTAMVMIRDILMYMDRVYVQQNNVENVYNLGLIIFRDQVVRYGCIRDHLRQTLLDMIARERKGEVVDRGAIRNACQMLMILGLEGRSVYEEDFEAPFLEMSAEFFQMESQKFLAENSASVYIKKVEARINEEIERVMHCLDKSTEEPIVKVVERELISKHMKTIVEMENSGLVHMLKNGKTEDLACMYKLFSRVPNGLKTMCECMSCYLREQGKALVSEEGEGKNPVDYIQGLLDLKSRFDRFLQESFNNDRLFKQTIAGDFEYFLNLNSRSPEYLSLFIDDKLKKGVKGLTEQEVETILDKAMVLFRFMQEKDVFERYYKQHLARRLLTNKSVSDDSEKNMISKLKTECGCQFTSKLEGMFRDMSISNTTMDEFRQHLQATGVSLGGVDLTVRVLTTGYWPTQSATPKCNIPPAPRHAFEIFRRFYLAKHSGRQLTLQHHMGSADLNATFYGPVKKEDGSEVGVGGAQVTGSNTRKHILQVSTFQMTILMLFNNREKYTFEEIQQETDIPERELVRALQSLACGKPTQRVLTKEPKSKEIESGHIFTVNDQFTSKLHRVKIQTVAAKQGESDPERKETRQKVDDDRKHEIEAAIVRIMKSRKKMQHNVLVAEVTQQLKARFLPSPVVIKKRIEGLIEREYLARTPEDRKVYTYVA

Assays:
Test in all cases: co-IP; lysates of SK1 cells transfected with GST-tagged bcl-2 constructs and treated with GO6976; immunoprecipitated with anti-GST antibody, immunoblotted with anti-Keap1 or anti-Cul3 antibody
[1] = biological target: Bcl-2/R17 (lysine 17 mutant) tagged with GST (UniProt P10417)
[2] = biological target: Bcl-2 BH2 deletion mutant tagged with GST (UniProt P10417)
[3] = biological target: Bcl-2 BH4 deletion mutant tagged with GST (UniProt P10417)

Measured: binding

Cul3 (from UniProt Q9JLV5 1-768)
no binding: all assays above

No constants are given. Whether binding was seen depends on the method and setting. Binding seen in cells or lysates may run through a third protein.
